Results published in the supplement of paper PMC3334620.
Over roughly 33,000 sequences, “E-score (-0.5 to 0.5)” has its median near -0.016; the highest 2% begin near 0.3. Some of the results follow.

Target: T1, Yer184c (UniProt P39961)
T1 sequence: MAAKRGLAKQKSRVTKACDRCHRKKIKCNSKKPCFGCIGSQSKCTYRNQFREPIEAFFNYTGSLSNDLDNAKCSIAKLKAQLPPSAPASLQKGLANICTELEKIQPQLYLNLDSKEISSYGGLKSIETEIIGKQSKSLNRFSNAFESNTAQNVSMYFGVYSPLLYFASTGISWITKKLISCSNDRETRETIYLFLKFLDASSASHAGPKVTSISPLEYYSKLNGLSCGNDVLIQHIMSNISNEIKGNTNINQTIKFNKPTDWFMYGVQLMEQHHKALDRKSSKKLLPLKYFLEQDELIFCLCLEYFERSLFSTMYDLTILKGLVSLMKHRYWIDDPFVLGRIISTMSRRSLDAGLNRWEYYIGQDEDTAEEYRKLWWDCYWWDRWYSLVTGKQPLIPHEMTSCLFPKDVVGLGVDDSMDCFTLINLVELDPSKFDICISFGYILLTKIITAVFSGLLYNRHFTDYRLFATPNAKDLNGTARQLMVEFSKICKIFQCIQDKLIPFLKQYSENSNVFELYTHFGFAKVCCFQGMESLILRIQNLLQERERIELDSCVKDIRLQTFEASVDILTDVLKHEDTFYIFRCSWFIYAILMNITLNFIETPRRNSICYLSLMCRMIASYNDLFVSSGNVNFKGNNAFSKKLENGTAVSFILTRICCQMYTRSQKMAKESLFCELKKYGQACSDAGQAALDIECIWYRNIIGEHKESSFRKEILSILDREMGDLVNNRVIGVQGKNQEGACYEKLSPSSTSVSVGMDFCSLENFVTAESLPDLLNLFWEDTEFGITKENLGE
Assay: PBM E-score (8-mer binding enrichment) (E-score (-0.5 to 0.5)); higher = stronger / more preferred TF binding
Conditions: protein concentration: 100 nM; construct: GST-full length
Summary of the method: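 Universal all-10-mer Agilent arrays, fresh or stripped once, were converted to double-stranded form by primer extension. GST-tagged yeast transcription factors from PURExpress in vitro transcription/translation, full-length or DNA-binding domain only, were applied at about 100-200 nM and detected with fluorescent anti-GST. After masliner normalisation, the Universal PBM Analysis Suite scored each ungapped eight-base word together with its reverse complement by E-score.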

Row | Sequence | PBM E-score
1 | CCCTCCCA | -0.0968
2 | AACAAGTA | -0.0265
3 | AACCTCTG | -0.12
4 | GCTTACGA | -0.135
5 | CGTCTCAA | 0.0441
6 | AAAGAAAA | 0.265
7 | GTAATAGA | -0.066
8 | ATTCTAAC | 0.0232
9 | AATTTACA | 0.037
10 | AGTATACG | 0.0157
11 | CCCCTTAC | -0.163
12 | CAATAGCA | -0.0713
13 | ACTACGCC | -0.131
14 | ATAACATC | 0.0727
15 | ATGGGAAA | -0.161
16 | CACTCCAA | -0.0555
17 | ATAGCTCC | -0.169
18 | CAAAAGTC | 0.0782
19 | GCTATACA | 0.0638
20 | GTGTCTTA | -0.13
21 | ACCATAGT | -0.0256
22 | GTAAACAA | 0.154

Row | Sequence | PBM E-score
23 | CGCCATCC | -0.0918
24 | GTTCAATA | 0.138
25 | AAGATCCA | 0.0572
26 | CTTTCTTA | -0.0148
27 | CTTCCGGA | 0.402
28 | AGTACGCG | 0.00663
29 | GACTCGGC | 0.121
30 | GCGTAATA | -0.0365
31 | GAATAGTC | -0.00027
32 | TATCCCCA | -0.209
33 | TCCACGAA | 0.0722
34 | GACATTAA | 0.132
35 | CCCCACGA | -0.182
36 | CATGAGGA | -0.0756
37 | CGACTTGC | -0.129
38 | TACAGCTA | -0.261
39 | CGTGAAAC | 0.0529
40 | GTGAGGAA | -0.0432
41 | ACAATGAT | 0.0383
42 | ACGCAAAT | 0.0394
43 | AAACGAGT | 0.0932
44 | AACGATGC | -0.166

Row | Sequence | PBM E-score
45 | ATGTTGAA | 0.133
46 | AGTTTCAA | 0.058
47 | CTCAATGC | -0.0849
48 | AGCTCCTC | -0.184
49 | CCGTGCCC | -0.0431
50 | GAGGAATC | -0.0819
51 | AATACAAC | 0.141
52 | AATAACCA | 0.0129
53 | CTTACCAC | -0.118
54 | ATGATTAC | 0.0685
55 | ACATTCAG | -0.0681
56 | AGCCAGTA | -0.0757
57 | AAATAAAA | 0.0817
58 | TAGATATA | 0.185
59 | GTTGCGAA | 0.0378
60 | TCGGGCAA | 0.0501
61 | GTCGGTAA | 0.105
62 | AGACAGCG | -0.0272
63 | ATATAAAC | 0.17
64 | CGCACGGC | 0.0607
65 | AGTCGGCC | 0.135
66 | GGGTTTAA | -0.0383

Row | Sequence | PBM E-score
67 | CAGGACCG | 0.041
68 | CTACAGGA | -0.0405
69 | CGGGCTCC | -0.152
70 | AAATGATC | -0.0261
71 | CTTATCAC | -0.162
72 | GGATGCGA | -0.13
73 | AGGAAACT | -0.0286
74 | ACCCTATA | -0.319
75 | ATTCCATC | 0.116
76 | GGCCTTAC | -0.176
77 | CGGGCGGA | 0.145
78 | AAAGATAA | 0.252
79 | CTCACGTC | -0.193
80 | CGGGACTA | 0.0259
81 | GAAACGAA | 0.173
82 | AAAATATG | 0.125
83 | CCCAATTA | -0.153
84 | GAAGTGAC | -0.0306
85 | CCACATGA | -0.0823
86 | CGAAGGGC | -0.0223

Looked up one by one from the list above:
Row | Sequence | PBM E-score
73 | AGGAAACT | -0.0286
16 | CACTCCAA | -0.0555
11 | CCCCTTAC | -0.163
5 | CGTCTCAA | 0.0441
